PMC8748900
These are yes or no findings as the source states them, for the method shown. Binding seen in cells or lysates may run through a third protein. These calls come from enrichment with a bait or labelling near it, and not all partners need be listed. Sequences can lack the tags named with a protein.

Target: T1, GFP-BASL (35S promoter-driven, in wild-type Arabidopsis) (Arabidopsis thaliana) (UniProt Q5BPF3)
T1 sequence: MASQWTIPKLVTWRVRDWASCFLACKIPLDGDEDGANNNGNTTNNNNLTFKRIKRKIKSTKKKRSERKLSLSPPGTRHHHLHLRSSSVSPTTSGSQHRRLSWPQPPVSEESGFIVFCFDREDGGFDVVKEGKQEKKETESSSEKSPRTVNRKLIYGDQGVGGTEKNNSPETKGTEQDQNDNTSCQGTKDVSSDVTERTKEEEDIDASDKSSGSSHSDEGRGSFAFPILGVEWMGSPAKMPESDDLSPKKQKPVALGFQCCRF
Test: affinity purification with mass spectrometry; GFP-BASL from 3-day-old 35S::GFP-BASL seedlings isolated with GFP-Trap agarose, 3 h at 4 °C; LC-MS/MS; control BASL::GFP

Row | binding | Substance
1 | binds | PRAF8 (endogenous, Arabidopsis seedlings)
2 | binds | PRAF9 (endogenous, Arabidopsis seedlings)
